Patent US5260210A, “Blood-brain barrier model” (priority 1990, dated 1993)
Entries after “also recorded” stand apart in the source; their conditions may differ.

Tested on: bovine brain capillary endothelial cells
Test: Transmonolayer (transendothelial cell) electrical resistance in the in vitro BBB model
Description: The degree of tightness of tight junctions can be also assessed by transcellular electrical resistance measurements. For transendothelial cell resistance measurements, cells were grown on a porous solid support, e.g., a filter or membrane attached to a holding device in order adequately to suspend the cellular monolayer, such as the Costar Transwell apparatus or the ICN Cellogen. […] Cells were maintained in a growth medium or physiological saline, and calomel electrodes on each of the endothelial cells are connected by a saturated KCl - 3% agar bridge. Current is passed between two Ag--AgCl electrodes and the voltage measured with a Keithly multimeter. Resistance is calculated from the change in voltage across the monolayer induced when a short current pulse (10-100 μamp) is applied. The resistance of the filter or membrane alone is subtracted. The resistance, multiplied by the surface area of the filter or membrane, yields the resistance in ohms-cm^2.
Bovine brain capillary endothelial cells were grown on polycarbonate filters in a conditioned growth medium containing either 5% or 10% PDHS. In controls, the growth medium contained 5% PDHS (.quadrature.) or 10% PDHS. […]
Bovine brain endothelial cells were dissociated and plated on tissue culture dishes in 50% MEM/FCS - 50% ADCM. […]
Resistance was then measured at various times. […]

CN[C@@H]1C[C@H]2O[C@@](C)([C@@H]1OC)n1c3ccccc3c3c4c(c5c6ccccc6n2c5c31)C(=O)NC4 [Staurosporine] was tested, and the “reversibility of effect of protein kinase inhibitors” value was “reversible” and the “effect of protein kinase inhibitors on resistance” value (10-200 nM) was “remarkably effective in reducing resistance; also recorded: markedly reduce the resistance”.
